Measured values as given in PMC10752957, “GABAA receptors as plausible molecular targets and mediators for taurine and homotaurine actions” (Frontiers in Pharmacology, 2023).

Tested on: native GABAARs in cerebellar granule cells
Assay: Whole-cell patch clamp of cerebellar granule cells in mouse brain slices, cumulative concentration-response
Assay type: cell-based
Settings: read-out: EC50 for evoking GABAAR-mediated current; CGCs held at −70 mV, 10 μM DNQX, 0.3 μM TTX, room temperature, mean ± SEM, n = 7

NCCCC(=O)O [GABA]
EC50: 3.7 µM
